# Experimental data published in PubChem BioAssay AID1625 (Sanford-Burnham Center for Chemical Genomics, 2009).
# In all, about 190,000 compounds went through this assay and about 570 (0.3%) were called active. This list was built around the results that the source calls inconclusive (neither active nor inactive); the mix of calls is not that of the screen.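 The calls were made as follows: active = z-score above 3 at 5 µM with at least 500 cells counted in the well; inconclusive = wells under 500 cells, flagged as cytotoxic or low count; inactive = the rest.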
# Assay: up-regulation of insulin promoter-GFP reporter – imaging, high-content screening, mouse beta cells (AID 1625)
# Conditions: MIN6 insulin promoter-GFP reporter, at 5 µM, active compounds read high
row,Structure (SMILES),z-score
1,NNC(=O)c1cc2c(N3CCC(Cc4ccccc4)CC3)ncnc2s1,inactive: -0.7
2,C(=C\c1ccccc1)/CN1CCN(c2ncnc3c2oc2ccccc23)CC1,inconclusive: -7.01
3,O=C(CCSc1nnc(-c2ccccc2)o1)N1CCOCC1,inconclusive: -4.56
4,COC(=O)c1[nH]c2cccc(Cl)c2c1NC(=O)CN(C)C1CCCCC1,active: 3.5
5,COc1ccc(-c2nnn(CC(=O)N(CCO)C(C(=O)NC3CCCC3)c3ccc(F)cc3)n2)cc1 (configuration not stated),active: 3.28
6,c1ccc2c(c1)CCN(c1ncnc3c1[nH]c1ccccc13)C2,inconclusive: -8.75
7,CC1(C)CC(N2CCN(c3ccccc3)CC2)=CC(=[N+]2CCCC2)C1,inconclusive: -7.63
8,COC(=O)Cc1nc(Nc2ccccc2)sc1C,inactive: -0.15
9,COc1ccccc1N1CCN(C(=O)Nc2cccc(Cl)c2)CC1,inactive: -1.48
10,COc1nnc(-c2ccc(N3CCCCC3)c(NC(=O)C3CCCCC3)c2)c2ccccc12,inconclusive: -6.18
11,N=c1n(CC(=O)c2ccc([N+](=O)[O-])cc2)c2ccccc2n1Cc1ccc(Cl)cc1,inconclusive: -0.03
12,c1cnc(N2CCN(c3cnccn3)CC2)nc1,inactive: -0.35
13,CCc1nc2c(n1O)CCc1nonc1-2,inconclusive: -0.75
14,COc1nc(-c2ccccc2)c2c(c1C#N)CC(C)(C)OC2,inconclusive: -1.64
15,O=C(Nc1cccnc1Cl)c1ccc(Cl)c([N+](=O)[O-])c1,inactive: 0.56
16,CCCN1C(=O)/C(=C/c2c(N3CCNC(=O)C3CC(=O)OC)nc3c(C)cccn3c2=O)SC1=S (configuration not stated),active: 6.46
17,CCOc1ccc(S(=O)(=O)N/N=C2/CCCC(=O)C2)cc1,inactive: -0.2
18,CC[n+]1c(/C=C2\C=C(C)CC(C)(C)C2)sc2ccccc21,inconclusive: -2.86
19,COc1cc(/C=N/NC(=O)c2ccoc2C)ccc1O,inactive: 0.07
20,N#Cc1c(N)nc(Sc2ccc(Cl)cc2)c(C#N)c1-c1ccccc1Cl,inactive: 0.26
21,CCOc1ccc(/C=N/OCC(=O)NC(c2ccccc2)c2ccccc2)cc1,inconclusive: -5.26
22,O=C(Nc1ccc(Cl)c(S(=O)(=O)N2CCOCC2)c1)c1ccc(OCC2CCCO2)cc1 (configuration not stated),inactive: 0.71
23,COCCn1c(SCC(=O)N2CCc3ccccc32)nc2c(c1=O)SC(C)C2 (configuration not stated),inconclusive: 0.15

row,Structure (SMILES),z-score
1,Cc1ccccc1NC(=S)NCCC(c1ccccc1)c1ccccc1,inactive: -0.35
2,CCN(CC)S(=O)(=O)c1cc(NC(=O)Cn2ncc(Cl)c(Cl)c2=O)ccc1C,inconclusive: -2.7
3,COc1cc2cc(C)c3nnc(SCC(=O)Nc4cc(C)on4)n3c2cc1OC,active: 5.98
4,CCN(CC)c1ccc2cc(-c3nnc(-c4ccncc4)o3)c(=O)oc2c1,active: 4.43
5,COc1ccc(-c2oc(NC(=O)CSc3ncn[nH]3)c(C#N)c2-c2ccc(OC)cc2)cc1,inactive: -0.29
6,COc1cccc(NC(=O)N2CCN(c3nnnn3-c3ccccc3)CC2)c1,active: 3.09
7,CC(=O)c1c(C)n([O-])c2cc(F)c(F)cc2[n+]1=O,inconclusive: -4.03
8,COc1cccc(CNCCc2c[nH]c3ccccc23)c1OCc1ccccc1F,inconclusive: -1.39
9,N=C(SC1CC(=O)N(c2ccc(F)cc2)C1=O)N1N=C(c2ccccc2)CC1c1ccccc1 (configuration not stated),inactive: -0.27
10,CN(C)CCn1c2ccccc2c2nc3ccc([N+](=O)[O-])cc3cc21,inconclusive: -3.03
11,CC(=O)Nc1ccccc1OCC(=O)c1cc(C)n(Cc2cccs2)c1C,inconclusive: -1.96
12,CC(C)CC(=O)NC(Nc1ccc([N+](=O)[O-])cc1)C(Cl)(Cl)Cl (configuration not stated),inactive: 0.2
13,COc1ccc(C(=O)/C=C/C(=O)N(CC(=O)NC2CCCCC2)Cc2ccccc2)c(O)c1,inconclusive: -1.2
14,Oc1ccccc1N=Nc1ccccc1O,inconclusive: -4.48
15,COc1ccc(OCC(=O)Nc2ccc(S(=O)(=O)Nc3cc(C)nc(C)n3)cc2)cc1,active: 3.12
16,CCn1c(/C=C/N(C)c2ccccc2)[n+](CC)c2ccc(Cl)cc21,inconclusive: -2.07
17,N#Cc1ccc(-c2ccc(Cl)cc2)nc1SCC(=O)c1cccc(Cl)c1,active: 6.91
18,c1ccc(N(c2ccccc2)c2nc(N3CCCC3)nc(-n3ccnc3)n2)cc1,inactive: -0.69
19,Cc1cnc(C(=O)Nc2cccc3cccnc23)cn1,inconclusive: -1.59
20,CCOCCn1c(CN2CCC(Cc3ccccc3)CC2)nc2c1c(=O)n(C)c(=O)n2C,inconclusive: -0.27
21,N#C/C(=C/c1ccc(-c2cc(C(=O)O)cc(C(=O)O)c2)o1)c1nc2ccccc2s1,active: 3.02
22,C=CCNC(=O)NC(=O)COC(=O)/C(C#N)=C/c1ccc(OC)cc1,inactive: -0.16
23,CCS(=O)(=O)N1Cc2ccccc2CC1C(=O)OCC(=O)Nc1ccc(C)cc1 (configuration not stated),active: 5.05

row,Structure (SMILES),z-score
1,Cc1cccc(OCC(=O)Nc2ccc3nc(C)sc3c2)c1,inactive: 0.18
2,CNc1ccc(Br)cc(C(=O)/C=C/c2cc(OC)ccc2OC)c1=O,inconclusive: 6.7
3,Nc1cccc2c1C(=O)N(C(=O)c1cccc(S(=O)(=O)N3CCCC3)c1)C2=O,active: 3.15
4,Cn1nc(-c2ccccc2)c2nc3ccccc3nc21,inactive: 1.8
5,COC(=O)CCC(=O)Nc1cc(Cl)cc(Cl)c1,inactive: -0.37
6,O=C1C=C(Nc2ccc(O)cc2)CC(c2ccco2)C1 (configuration not stated),active: 6.78
7,Cn1nc(C(C)(C)C)cc1C(=O)NCc1ccc(N2CCCC2=O)cc1,inconclusive: -11.3
8,COc1ccc(-n2c(-c3ccc(Br)cc3)c[n+]3c2CCC3)cc1,inconclusive: -4.75
9,Cc1cccn2cc(CNC(=O)c3ccco3)nc12,inactive: -0.38
10,S=C(Nc1ccc(Cl)c(Cl)c1)NN1CCOCC1,inactive: -0.6
11,CC(=O)Nc1ccc(N2CCc3c(C)c(C#N)c4nc5ccccc5n4c32)cc1,active: 3.8
12,CN(C)C(=O)C12CCC(C)(c3nc4ccccc4nc31)C2(C)C (configuration not stated),active: 3.42
13,Cc1ccc(C)c(NC(=O)C(C)CC2COCCO2)c1 (configuration not stated),active: 3.45
14,O=C(NCC1CCCO1)c1ccc(CSCc2cccc(F)c2)o1 (configuration not stated),inactive: 0.06
15,Cc1nn(C)c(C)c1NC(=O)CC12CC3CC(CC(C3)C1)C2,inactive: -0.68
16,COc1ccccc1N1CCN(C(=O)CSc2nnc3n2C(C)(C)Cc2ccccc2-3)CC1,inconclusive: -4.81
17,CCCS(=O)(=O)N1CCC(C(=O)N2CCOCC2)CC1,active: 4.02
18,CC1=CC(=O)C=C(C)C1=NOc1ccccc1[N+](=O)[O-],inconclusive: -3.64
19,CCN(CC)S(=O)(=O)c1ccc(Oc2ccc(S(=O)(=O)N(CC)CC)cc2)cc1,inconclusive: -3.45
20,CCCCCCc1cc2cc(C(=O)Nc3ccccc3)c(=O)oc2cc1O,inconclusive: -2.07
21,O=S(=O)(NCc1ccncc1)c1ccc(Br)s1,inconclusive: -5.34
22,Fc1ccc(NCc2nnc3n2CCCCC3)cc1,inactive: -0.17
23,COCCNC(=O)NC12CC3CC(CC(C3)C1)C2,inactive: -0.81

# Reformatted: entries from further up
row | Structure (SMILES) | z-score
8 | COc1ccc(-n2c(-c3ccc(Br)cc3)c[n+]3c2CCC3)cc1 | inconclusive: -4.75
9 | Cc1cccn2cc(CNC(=O)c3ccco3)nc12 | inactive: -0.38
10 | S=C(Nc1ccc(Cl)c(Cl)c1)NN1CCOCC1 | inactive: -0.6
11 | CC(=O)Nc1ccc(N2CCc3c(C)c(C#N)c4nc5ccccc5n4c32)cc1 | active: 3.8

# (more compounds)

row,Structure (SMILES),z-score
1,O=C(Nc1cc2c3c(c1)C1CCCC1CN3CC1CCCC21)c1ccc([N+](=O)[O-])cc1 (configuration not stated),inconclusive: -5.95
2,CCN1C/C(=C/c2ccc(OC)c(O)c2)C(=O)/C(=C/c2ccc(OC)c(O)c2)C1,inconclusive: -3.67
3,COc1cccc(NC(=O)C2CC(=O)N/C(=N/NC(=O)c3ccc(C)cc3)S2)c1 (configuration not stated),inactive: -0.08
4,CCC1=C(OC(=O)N(CC)CC)N2C(=O)OC(=NCC3CC3)[C@]2(Cc2ccccc2)[C@H]2C1=CC[C@H]1C(=O)N(CC)C(=O)[C@H]12,inactive: -0.87
5,CCNc1ccc(Br)cc(C(=O)/C=C/c2ccc(Cl)cc2Cl)c1=O,inconclusive: 7.12
6,CN(C)CCOCCOc1ccccc1-c1ccccc1,active: 4.97
7,COc1ccc(C2CC(C(F)(F)F)n3nc(C(=O)NCc4c(C)nn(C)c4C)c(Cl)c3N2)cc1 (configuration not stated),inconclusive: -6.3
8,O=c1[nH]c(CSc2ncnc3sc(-c4ccccc4)cc23)nc2ccccc12,inactive: 1.13
9,O=C1NC(=S)S/C1=C\C=C\c1ccc([N+](=O)[O-])o1,inconclusive: 9.53
10,CCN(CC)S(=O)(=O)c1ccc(Cl)c(NC(=O)COC(=O)/C=C/c2cc(OC)c(OC)c(OC)c2)c1,inconclusive: -2.6
11,CCNC(=O)N1CCOCC1,inactive: -0.25
12,Oc1ccccc1/C=N/NC(=S)NC1CC2C=CC1C2 (configuration not stated),inactive: -0.14
13,CCN(CC)CCn1c(=S)[nH]c2ccc(Cl)cc2c1=O,active: 3.97
14,Cc1ccc(/C([O-])=C(/C(=S)NCc2ccc3c(c2)OCO3)[n+]2ccc(N(C)C)cc2)c(C)c1,inactive: 0.02
15,O=C(NCC(c1cccnc1)N1CCOCC1)NC1CCCCC1 (configuration not stated),inconclusive: 1.99
16,O=C(O)CC12CSc3[nH]c(=O)sc3C1c1ccccc1OC2=O (configuration not stated),active: 3.25
17,COc1cccc(S(=O)(=O)NCc2ccc(C(=O)Nc3ccc(Cl)c(Cl)c3)cc2)c1,active: 3.13
18,Cc1cc(Cl)c(OCCCN2CCCCC2)c(Br)c1,inactive: -0.74
19,Cc1noc(C)c1S(=O)(=O)N1CCC(C(=O)NC2CCN(Cc3ccccc3)CC2)CC1,inactive: -0.08
20,COc1ccc(CCNc2ncnc3sccc23)cc1OC,inconclusive: -5.8
21,COc1ccc(NC(=O)Cc2coc3ccc4ccccc4c23)cc1S(=O)(=O)N1CCOCC1,inactive: 0.63
22,CCCCc1ccc(NC(=S)N2CCC(O)CC2)cc1,inactive: 0.15
23,CCOc1ccc(CNc2ncnc(N)n2)cc1,inconclusive: -0.84
